Laboratory results: PubChem BioAssay AID1224830 (NIAID, 2016)
Aim: 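Regulators of TLR4 signalling towards TNF-alpha in macrophage-like cells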 (primary screen). Cells: human THP-1 monocytic leukaemia cells, TNF dual-luciferase reporter clone, PMA-differentiated to macrophage-like cells. Knock-down reagent: siRNA pool against human genes, 50 nM. Timing: LPS for 4 h, given about 3 days after siRNA transfection. Challenge: bacterial LPS (TLR4 ligand), 10 ng/ml. Read-out: 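Ratio of firefly to renilla light, scaled to the plate median and expressed as a robust z-score per replicate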. Reading the numbers: TNF reporter robust z-score: higher = stronger TNF reporter response to LPS. Rule for the call: 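Each well counts as active if its z-score is over 2.8 or under -1.5; controls are left without a call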.
This is one part, drawn at random, of about 18,000 reagents. In the full data, about 2,900 (16%) got an active call. 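Calls are made per well; low scores hint the gene aids the LPS response, high scores that it dampens it.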 Entries without a mark were called inactive. Repeated entries: four replicate wells of each siRNA pool. No sequences are given here.

SPATA18 scored TNF reporter robust z-score 0.63. Knock-down of SPATA18 resulted in: TNF reporter robust z-score -0.75. Knock-down of SPATA18 resulted in: TNF reporter robust z-score -1. SPATA18 showed TNF reporter robust z-score -0.6. CD300C scored TNF reporter robust z-score -0.51. Silencing of CD300C came out at: TNF reporter robust z-score -0.12.

For CD300C, the entry reads TNF reporter robust z-score -0.01. For CD300C, the entry reads TNF reporter robust z-score -0.33. For SOX15, the entry reads TNF reporter robust z-score 3.19 (active). With knock-down of SOX15, the record shows TNF reporter robust z-score 3.31 (active). With knock-down of SOX15 the results were TNF reporter robust z-score 3.62 (active). After knock-down of SOX15, the screen gave TNF reporter robust z-score 4.42 (active).

RCCD1 showed TNF reporter robust z-score 0.17. RCCD1 gave TNF reporter robust z-score 1.07. RCCD1 showed TNF reporter robust z-score -0.54. RCCD1 showed TNF reporter robust z-score -0.16. For BCL7C the deposit lists TNF reporter robust z-score 1.21. BCL7C scored TNF reporter robust z-score 1.85.

BCL7C scored TNF reporter robust z-score 0.62. With knock-down of BCL7C the results were TNF reporter robust z-score 0.83. After knock-down of PRAME, the screen gave TNF reporter robust z-score 1.14. With knock-down of PRAME the results were TNF reporter robust z-score 1.42. Against PRAME, the values are TNF reporter robust z-score 0.59. PRAME showed TNF reporter robust z-score 3.3 (active).

Entries listed so far marked active:
SOX15 — TNF reporter robust z-score = 3.19 (active)
SOX15 — TNF reporter robust z-score = 3.31 (active)
SOX15 — TNF reporter robust z-score = 3.62 (active)
SOX15 — TNF reporter robust z-score = 4.42 (active)
PRAME — TNF reporter robust z-score = 3.3 (active)

The listing continues:
Against FOXP4, the entry reads TNF reporter robust z-score 0.58. With knock-down of FOXP4, the record shows TNF reporter robust z-score -0.04. After knock-down of FOXP4, the screen gave TNF reporter robust z-score -0.9. With knock-down of FOXP4 the results were TNF reporter robust z-score -0.55. Knock-down of ECH1 came out at: TNF reporter robust z-score 0.3. ECH1 showed TNF reporter robust z-score 0.46.

Depletion of ECH1 came out at: TNF reporter robust z-score 0.63. ECH1 scored TNF reporter robust z-score 0.35. BCAR3 gave TNF reporter robust z-score 2.62. For BCAR3, the values are TNF reporter robust z-score 1.52. After knock-down of BCAR3 the results were TNF reporter robust z-score 1.86. After knock-down of BCAR3, the record shows TNF reporter robust z-score 4.08 (active).

Against ERC2 the deposit lists TNF reporter robust z-score -0.37. ERC2 gave TNF reporter robust z-score -0.87. Silencing of ERC2 came out at: TNF reporter robust z-score -0.69. ERC2 scored TNF reporter robust z-score 0.33. NEFL gave TNF reporter robust z-score -0.96. Against NEFL, the values are TNF reporter robust z-score -0.95.

With knock-down of NEFL the results were TNF reporter robust z-score -0.78. NEFL gave TNF reporter robust z-score -0.56. Knock-down of EP400 resulted in: TNF reporter robust z-score -0.61. EP400 showed TNF reporter robust z-score -0.86. Depletion of EP400 resulted in: TNF reporter robust z-score -0.01. EP400 scored TNF reporter robust z-score -0.82.
